Results from patent publication US20040077549A1, “Inhibitors of the E2F-1/cyclin interaction for cancer therapy” (priority 2000, published 2004).
Some results were stated once for a whole list of compounds, not compound by compound. Where no end group is shown, it is not given here.

Target: E2F-1/Cyclin A interaction (Homo sapiens, UniProt P20248)
Assay: E2F-1/Cyclin A/cdk2 ELISA
Format: binding
Method: An ELISA was developed to identify antagonists of E2F-1/Cyclin A interaction. This method is based on interactions between three proteins, E2F-1, Cyclin A and cdk2 and is analyzed colorimetrically. This assay was used to determine IC50 values for various synthetic peptides that were used in biological experiments and for SAR studies.
This assay allows determination of IC50 values for various synthetic peptides that were used in biological experiments or for SAR studies.
Nunc Immulon II ELISA plates are coated overnight at 4° C. with 250 μL of […] anti-GST antibody (Pharmacia Biotech) in bicarbonate buffer. Following five washes with wash buffer consisting of 50 mM Tris (pH=7.5), 0.15 M NaCl, and 0.01% Tween-20 (TBST), non-specific sites were blocked for 2 hr at room temperature with 300 μL of assay buffer consisting of 50 mM HEPES (pH=7.5), 0.15 M NaCl, 0.1% Triton X-100, and 5% bovine serum albumin (BSA). Plates were then washed five times in TBST, aspirated dry, and treated with 100 μL of GST-E2F-1 in TBS (25 nM). GST-E2F-1 was incubated at RT for at least 1 hr with non-specific binding (NSB) control wells receiving assay buffer with no protein. […] After 10-15 min, absorbance is read using a microplate reader at 405 nm.

YGRKKRRQRRRGRLDLPKVRKRS [Tat-mt, reference compound]
no inhibition up to (E2F-1/Cyclin A binding): > 100 µM
